Reference: PubChem BioAssay AID1347423 (Functional Genomics Laboratory (NCATS/FGL), 2020)
The campaign covered roughly 52,000 sequences. About 210 (0.4%) were called active.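 The calls were made as follows: active = gene whose silencing raises cell survival under the drug, median off-target-corrected z-score across its silencing RNAs 2 or more; inactive = the rest.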 The list shows a part of the results.

Assay: Resistance to Poly (ADP-Ribose) Polymerase inhibitor: Gene Identification via Genome-wide siRNA Screen
Details: mouse BRCA2 R2336H ES cells, olaparib, CellTiter-Glo viability; active compounds read high
Procedure, shortened: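 Mouse BRCA2 R2336H ES cells were reverse-transfected with siRNA (20 nM final), treated at 48 h with 500 nM olaparib, and read by CellTiter-Glo after 72 h. Scores: MAD-based z per siRNA, median per gene, seed off-target correction.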

**Q.** Which z-score does the source give for GCGAUUGUCCAAGAAUUCCTT against Crcp here?
**A.** inactive: 1.36

**Q.** For UCACCUACAGCGGAUCUCATT against Oxt, which z-score is on record?
**A.** inactive: 0.294

**Q.** For “CCAACACGUUGCACAGAGUTT against A830073O21Rik”, which z-score is on record?
**A.** inactive: -1.75

**Q.** With CGGACCUACAAACAAUAACTT against Ccl9 as the sequence, how does the z-score read?
**A.** inactive: 0.0303

**Q.** Which z-score does the source give for CCAUUGUGAUCAAGAUAAATT against Cggbp1 here?
**A.** inactive: 0.591

**Q.** With CGUUCCAUCUCUAACUGGATT against Rhox3 as the sequence, how does the z-score read?
**A.** inactive: 0.271

**Q.** With GGAUCUACAUUGCUAAAGUTT against Dbil5 as the sequence, how does the z-score read?
**A.** inactive: 0.918

**Q.** With CCUGAGAUGAUAAUCCUGCTT against Sprr2i as the sequence, how does the z-score read?
**A.** inactive: 0.288

**Q.** For GGUUAUCUUGAAUAAAGCUTT against Zfp346, which z-score is on record?
**A.** inactive: 1.79

**Q.** Which z-score does the source give for GGAAAAAGAUUGAGGAAGUTT against Uhrf1 here?
**A.** inactive: -0.647

**Q.** With UCGGCCAUGUAGUAUGGGATT against Xlr3a as the sequence, how does the z-score read?
**A.** inactive: -0.822

**Q.** For GGACAUUAACGAGCUGAACTT against Ube2m, which z-score is on record?
**A.** inactive: 0.791

**Q.** With GCCCUUCGAAUGUGUAAGGTT against LOC328644 as the sequence, how does the z-score read?
**A.** inactive: 0.0887

**Q.** With “GGAGCUAGAGUUUUCACUATT against 2500003M10Rik” as the sequence, how does the z-score read?
**A.** inactive: 0.943

**Q.** For CCGUAUAAGUUUACGUUUATT against Tm9sf2, which z-score is on record?
**A.** inactive: 0.118

**Q.** Which z-score does the source give for GGCUAACCAGAGGAAAAACTT against Rph3a here?
**A.** inactive: -0.186

**Q.** For CCAAGUAAGGACUAUAGAGTT against Gpatc2, which z-score is on record?
**A.** inactive: 0.312

**Q.** With GGGAAGUUCAUAUUGAUCCTT against Gsdm1 as the sequence, how does the z-score read?
**A.** inactive: -0.71

**Q.** For GCCUGAAUCCGCCACAUUGTT against Cx3cl1, which z-score is on record?
**A.** inactive: -2.13

**Q.** For GGUAACCUUGGAGAAGGUCTT against Mapkbp1, which z-score is on record?
**A.** inactive: 0.348

**Q.** For “GGUGGAUUCUUUCUCCUUCTT against 4833415N24Rik”, which z-score is on record?
**A.** inactive: 1.65

**Q.** With GGGCAAUCCUGAAUUGGUUTT against Atp2b4 as the sequence, how does the z-score read?
**A.** inactive: -0.698

**Q.** For GGGUUUCUGGGACUUCACCTT against Bgn, which z-score is on record?
**A.** inactive: 0.372

**Q.** For GGAGUUCAAAGAUGCAAUUTT against Zfyve27, which z-score is on record?
**A.** inactive: 1.25

**Q.** With “GGCAACAAAUGCUGUGUAATT against 2610301B20Rik” as the sequence, how does the z-score read?
**A.** inactive: -1.09

**Q.** For CCAAGUAUGCUAGCAUGAUTT against Ndufa3, which z-score is on record?
**A.** inactive: -1.7

**Q.** For GGUACACAGUCAUAAUGAGTT against Olfr975, which z-score is on record?
**A.** inactive: 0.161

**Q.** For CGACAUAUCCUUCUUUUCUTT against Ppic, which z-score is on record?
**A.** inactive: 0.542

**Q.** Which z-score does the source give for GCUUGCUCACUCUAGUACUTT against Olfr937 here?
**A.** inactive: 1.95

**Q.** With UACCUUUAGCGCGCUUCCUTT against Oxt as the sequence, how does the z-score read?
**A.** inactive: -0.109

**Q.** With GGAAUGGAGUUUGGUUUUGTT against Extl1 as the sequence, how does the z-score read?
**A.** inactive: 3.43

**Q.** With “GCUUAAGUGCAGGGACCUATT against 4930519N13Rik” as the sequence, how does the z-score read?
**A.** inactive: 0.873

**Q.** With GGUCUCAUAGAGUGUUACUTT against Anapc7 as the sequence, how does the z-score read?
**A.** inactive: 0.289

**Q.** With GCUUAGCUGUUAUGUUUUUTT against Atp6ap1 as the sequence, how does the z-score read?
**A.** inactive: -0.399

**Q.** For GGUGAUUAUUUUGUCAGCCTT against Olfr1228, which z-score is on record?
**A.** inactive: 0.681

**Q.** With CCAGUGGUCAUUCUUGUCUTT against Olfr1076 as the sequence, how does the z-score read?
**A.** inactive: 0.844

**Q.** Which z-score does the source give for GGGUUCUGUGUAAAUGUAUTT against Gzma here?
**A.** inactive: 0.291

**Q.** Which z-score does the source give for CCUGAUUCAAAUGCUCUCCTT against BC034204 here?
**A.** inactive: 0.0244

**Q.** Which z-score does the source give for GGUCAAUUGCACCUGGAACTT against Snx19 here?
**A.** inactive: -0.832

**Q.** For CGAAGAAAACCAUAAGGACTT against Bdnf, which z-score is on record?
**A.** inactive: -0.738

**Q.** For GGACUGGUUUGACUUUAAATT against Oasl1, which z-score is on record?
**A.** inactive: -1.33

**Q.** With GGCUCAGCACUUUCCUAAUTT against Ifnab as the sequence, how does the z-score read?
**A.** inactive: -0.0748

**Q.** With GGAUACUUGAUGAACUUUGTT against Tmem16b as the sequence, how does the z-score read?
**A.** inactive: -1.39

**Q.** With GGCUGUAGUUCUCACUGUGTT against Olfr902 as the sequence, how does the z-score read?
**A.** inactive: 0.822

**Q.** For GGCAGUUUGGUUUUUUUUGTT against Galnt7, which z-score is on record?
**A.** inactive: 1.76

**Q.** Which z-score does the source give for CGACAAACUACAUAGCAGATT against Brms1 here?
**A.** inactive: 0.0865

**Q.** For “CCGUUUUGUCUGAAUUCCCTT against 4930515G01Rik”, which z-score is on record?
**A.** inactive: -2.55

**Q.** For GGCUAAGACCAAAACUUUATT against Cyp4f13, which z-score is on record?
**A.** inactive: 0.252

**Q.** Which z-score does the source give for GGAAUGCAUCACAAAACUUTT against Lancl2 here?
**A.** inactive: 0.362

**Q.** Which z-score does the source give for “GCCUCACUCAGCAAAAGGATT against 2210019E14Rik” here?
**A.** inactive: -2.52

**Q.** Which z-score does the source give for CGCGGUCAUCUUUGUCUUCTT against Centg2 here?
**A.** inactive: -0.317

**Q.** For GCCAUCUACUUUGUUAUAGTT against Kcnk4, which z-score is on record?
**A.** inactive: 1.46

**Q.** With “GGAAAAGAAAGACUUUUGCTT against 5832424M12” as the sequence, how does the z-score read?
**A.** inactive: 0.787

**Q.** With GGACGGGCUUCUAGUUGAATT against V1rh2 as the sequence, how does the z-score read?
**A.** inactive: -0.288

**Q.** Which z-score does the source give for ACUGGCCGGGAUUACAGAUTT against Ang3 here?
**A.** inactive: -0.442

**Q.** With GCUUGCUCAGGGAUUUUUATT against Rb1cc1 as the sequence, how does the z-score read?
**A.** inactive: 0.265

**Q.** Which z-score does the source give for GGAAAGAAGCCAAAGAAAUTT against Spata4 here?
**A.** inactive: -1.17

**Q.** With CCCGAGAAUACACCAUCAATT against Rpl31 as the sequence, how does the z-score read?
**A.** inactive: -2.59

**Q.** Which z-score does the source give for “GGACCAGAGGAAGAUUCCCTT against 1700020D05Rik” here?
**A.** inactive: 0.463

**Q.** With “GGUGUAAGACGUGUGGAGATT against 2900016D05Rik” as the sequence, how does the z-score read?
**A.** inactive: 1.45

**Q.** Which z-score does the source give for CGAGGAUUACAGAGGAAACTT against Dutp here?
**A.** inactive: -0.409

**Q.** Which z-score does the source give for GGACAAGGCUGCUACUUCATT against Pou6f2 here?
**A.** inactive: -0.217

**Q.** Which z-score does the source give for GGAAAGUUGUGAACUCUAATT against Olfr1157 here?
**A.** inactive: -1.77

**Q.** Which z-score does the source give for GGAAGUGUGGACGAAUAAATT against BC019561 here?
**A.** inactive: -1.17

**Q.** For GGUGCUCCCUGCAUACUAUTT against Ngp, which z-score is on record?
**A.** inactive: 0.177

**Q.** With GGACAUCCAGACCAAUGUCTT against Psmd8 as the sequence, how does the z-score read?
**A.** inactive: -2.52

**Q.** Which z-score does the source give for GGAUGGAGAUUAUGAAGAGTT against Pcsk9 here?
**A.** inactive: 0.613
